# Measurements reported in the supplement of paper PMC10849652.
# Chains of the proteins cited; added tags and fusions are not shown. Lines headed by an entry give the natural chain unless they say otherwise; changes in a name come on top.
# UniProt Q8N4S0: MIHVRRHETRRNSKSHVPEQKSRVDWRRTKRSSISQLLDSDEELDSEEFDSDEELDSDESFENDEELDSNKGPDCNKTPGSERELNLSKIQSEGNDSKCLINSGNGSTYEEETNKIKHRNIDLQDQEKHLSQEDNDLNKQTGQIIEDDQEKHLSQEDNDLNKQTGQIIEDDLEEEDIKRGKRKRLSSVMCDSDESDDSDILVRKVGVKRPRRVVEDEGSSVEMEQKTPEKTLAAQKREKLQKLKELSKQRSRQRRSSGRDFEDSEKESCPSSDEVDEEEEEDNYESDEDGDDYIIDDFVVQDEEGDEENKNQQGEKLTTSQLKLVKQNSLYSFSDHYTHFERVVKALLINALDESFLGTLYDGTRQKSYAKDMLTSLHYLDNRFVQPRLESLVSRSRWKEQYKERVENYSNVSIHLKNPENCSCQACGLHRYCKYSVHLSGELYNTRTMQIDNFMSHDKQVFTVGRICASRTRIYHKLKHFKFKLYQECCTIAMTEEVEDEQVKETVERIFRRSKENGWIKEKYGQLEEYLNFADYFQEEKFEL
# UniProt Q96F63: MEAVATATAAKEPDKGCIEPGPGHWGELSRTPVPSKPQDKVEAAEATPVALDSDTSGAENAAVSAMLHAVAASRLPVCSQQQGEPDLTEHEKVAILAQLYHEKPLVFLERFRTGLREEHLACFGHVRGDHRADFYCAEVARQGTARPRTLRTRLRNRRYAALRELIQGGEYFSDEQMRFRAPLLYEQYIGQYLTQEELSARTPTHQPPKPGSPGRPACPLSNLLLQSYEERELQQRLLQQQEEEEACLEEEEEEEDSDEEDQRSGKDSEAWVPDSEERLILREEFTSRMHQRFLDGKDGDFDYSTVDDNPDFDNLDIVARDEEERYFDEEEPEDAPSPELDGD
# UniProt Q9BUN5: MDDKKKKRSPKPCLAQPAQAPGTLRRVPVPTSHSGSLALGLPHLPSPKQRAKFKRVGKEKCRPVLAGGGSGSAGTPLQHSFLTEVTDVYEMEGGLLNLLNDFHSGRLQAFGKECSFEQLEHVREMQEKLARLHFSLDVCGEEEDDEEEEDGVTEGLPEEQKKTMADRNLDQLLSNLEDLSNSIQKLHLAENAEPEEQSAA
# UniProt Q9BSQ5: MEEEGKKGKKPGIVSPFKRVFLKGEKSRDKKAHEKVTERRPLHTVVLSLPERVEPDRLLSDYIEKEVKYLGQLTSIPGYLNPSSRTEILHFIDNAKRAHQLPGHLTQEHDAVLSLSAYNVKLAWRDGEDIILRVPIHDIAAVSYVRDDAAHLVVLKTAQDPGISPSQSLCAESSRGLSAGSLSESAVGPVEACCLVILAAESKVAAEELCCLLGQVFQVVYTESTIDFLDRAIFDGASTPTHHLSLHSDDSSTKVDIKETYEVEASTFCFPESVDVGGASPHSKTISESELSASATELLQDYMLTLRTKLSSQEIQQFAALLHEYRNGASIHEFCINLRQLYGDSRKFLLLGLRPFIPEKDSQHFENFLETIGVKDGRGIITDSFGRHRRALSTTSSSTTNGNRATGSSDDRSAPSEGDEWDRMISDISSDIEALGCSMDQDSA
# UniProt P55210: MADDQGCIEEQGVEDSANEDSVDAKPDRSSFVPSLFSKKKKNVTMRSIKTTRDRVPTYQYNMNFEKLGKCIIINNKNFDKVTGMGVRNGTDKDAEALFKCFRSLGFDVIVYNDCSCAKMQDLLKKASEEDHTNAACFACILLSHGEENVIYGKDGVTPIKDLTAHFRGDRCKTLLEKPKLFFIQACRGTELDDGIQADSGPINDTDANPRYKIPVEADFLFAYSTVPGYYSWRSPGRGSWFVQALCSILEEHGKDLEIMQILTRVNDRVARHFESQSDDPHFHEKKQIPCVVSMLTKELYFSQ
# UniProt Q07108: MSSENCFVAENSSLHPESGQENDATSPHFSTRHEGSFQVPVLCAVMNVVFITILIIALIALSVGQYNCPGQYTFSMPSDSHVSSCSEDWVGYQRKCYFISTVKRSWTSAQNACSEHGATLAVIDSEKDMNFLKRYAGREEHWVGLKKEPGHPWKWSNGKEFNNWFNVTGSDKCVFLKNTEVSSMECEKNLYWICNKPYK
# UniProt Q7Z3E2: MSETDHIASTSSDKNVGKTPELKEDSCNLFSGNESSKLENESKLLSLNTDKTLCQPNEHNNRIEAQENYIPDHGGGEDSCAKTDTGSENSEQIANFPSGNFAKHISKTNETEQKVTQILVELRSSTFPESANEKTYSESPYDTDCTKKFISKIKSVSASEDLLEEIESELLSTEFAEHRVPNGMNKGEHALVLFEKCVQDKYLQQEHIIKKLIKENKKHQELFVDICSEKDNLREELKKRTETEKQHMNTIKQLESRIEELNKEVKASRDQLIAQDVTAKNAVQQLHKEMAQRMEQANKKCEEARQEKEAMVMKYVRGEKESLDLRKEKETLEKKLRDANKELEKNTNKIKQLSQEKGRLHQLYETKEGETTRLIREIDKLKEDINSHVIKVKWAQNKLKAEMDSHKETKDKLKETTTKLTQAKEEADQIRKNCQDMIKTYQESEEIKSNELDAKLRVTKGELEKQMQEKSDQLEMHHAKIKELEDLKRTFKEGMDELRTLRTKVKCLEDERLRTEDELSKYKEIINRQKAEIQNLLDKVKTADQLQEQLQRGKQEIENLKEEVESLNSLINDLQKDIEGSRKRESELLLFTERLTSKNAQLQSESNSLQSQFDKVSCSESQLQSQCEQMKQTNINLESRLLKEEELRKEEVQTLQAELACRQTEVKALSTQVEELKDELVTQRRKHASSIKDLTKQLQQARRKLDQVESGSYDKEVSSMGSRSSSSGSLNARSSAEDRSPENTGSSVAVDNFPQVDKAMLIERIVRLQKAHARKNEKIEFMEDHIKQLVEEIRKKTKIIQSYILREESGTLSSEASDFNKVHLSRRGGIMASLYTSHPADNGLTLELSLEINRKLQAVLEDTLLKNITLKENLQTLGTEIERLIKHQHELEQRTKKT
# UniProt Q13951, whole entry, looked up: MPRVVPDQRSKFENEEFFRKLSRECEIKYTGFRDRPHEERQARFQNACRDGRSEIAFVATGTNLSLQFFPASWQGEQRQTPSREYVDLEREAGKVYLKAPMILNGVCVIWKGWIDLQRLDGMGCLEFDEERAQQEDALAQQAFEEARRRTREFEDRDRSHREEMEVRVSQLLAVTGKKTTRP
# UniProt P33681, whole entry, looked up: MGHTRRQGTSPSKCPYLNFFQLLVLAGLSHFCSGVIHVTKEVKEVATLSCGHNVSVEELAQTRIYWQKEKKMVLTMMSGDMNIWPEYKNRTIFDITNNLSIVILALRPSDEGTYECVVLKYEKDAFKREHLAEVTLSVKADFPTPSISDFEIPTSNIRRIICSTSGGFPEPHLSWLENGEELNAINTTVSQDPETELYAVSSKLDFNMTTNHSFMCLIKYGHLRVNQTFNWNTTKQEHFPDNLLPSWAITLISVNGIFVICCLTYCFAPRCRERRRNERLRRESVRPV
# UniProt Q9BWV3: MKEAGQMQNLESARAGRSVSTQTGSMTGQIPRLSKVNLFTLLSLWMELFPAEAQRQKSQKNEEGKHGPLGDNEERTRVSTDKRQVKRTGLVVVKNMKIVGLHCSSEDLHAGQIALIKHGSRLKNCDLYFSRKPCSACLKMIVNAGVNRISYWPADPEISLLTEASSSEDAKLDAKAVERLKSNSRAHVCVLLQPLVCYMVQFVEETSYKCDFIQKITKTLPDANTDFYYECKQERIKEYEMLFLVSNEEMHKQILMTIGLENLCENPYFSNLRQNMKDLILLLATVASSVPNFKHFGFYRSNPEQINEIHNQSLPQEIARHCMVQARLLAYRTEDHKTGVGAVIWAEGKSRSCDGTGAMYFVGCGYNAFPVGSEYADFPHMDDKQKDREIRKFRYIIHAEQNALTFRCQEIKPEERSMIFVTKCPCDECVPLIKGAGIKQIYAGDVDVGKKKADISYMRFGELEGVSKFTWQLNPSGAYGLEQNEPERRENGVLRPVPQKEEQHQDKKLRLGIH
# UniProt P34810: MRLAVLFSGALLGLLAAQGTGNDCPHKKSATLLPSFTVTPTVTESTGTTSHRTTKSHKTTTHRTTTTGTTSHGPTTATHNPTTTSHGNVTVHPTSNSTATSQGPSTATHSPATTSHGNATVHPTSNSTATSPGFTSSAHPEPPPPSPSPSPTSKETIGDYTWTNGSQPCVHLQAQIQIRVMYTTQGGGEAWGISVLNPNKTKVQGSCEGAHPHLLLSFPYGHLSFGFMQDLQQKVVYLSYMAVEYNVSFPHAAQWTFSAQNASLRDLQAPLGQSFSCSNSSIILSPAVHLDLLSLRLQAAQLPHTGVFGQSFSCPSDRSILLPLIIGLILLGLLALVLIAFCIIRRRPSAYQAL
# UniProt P16070: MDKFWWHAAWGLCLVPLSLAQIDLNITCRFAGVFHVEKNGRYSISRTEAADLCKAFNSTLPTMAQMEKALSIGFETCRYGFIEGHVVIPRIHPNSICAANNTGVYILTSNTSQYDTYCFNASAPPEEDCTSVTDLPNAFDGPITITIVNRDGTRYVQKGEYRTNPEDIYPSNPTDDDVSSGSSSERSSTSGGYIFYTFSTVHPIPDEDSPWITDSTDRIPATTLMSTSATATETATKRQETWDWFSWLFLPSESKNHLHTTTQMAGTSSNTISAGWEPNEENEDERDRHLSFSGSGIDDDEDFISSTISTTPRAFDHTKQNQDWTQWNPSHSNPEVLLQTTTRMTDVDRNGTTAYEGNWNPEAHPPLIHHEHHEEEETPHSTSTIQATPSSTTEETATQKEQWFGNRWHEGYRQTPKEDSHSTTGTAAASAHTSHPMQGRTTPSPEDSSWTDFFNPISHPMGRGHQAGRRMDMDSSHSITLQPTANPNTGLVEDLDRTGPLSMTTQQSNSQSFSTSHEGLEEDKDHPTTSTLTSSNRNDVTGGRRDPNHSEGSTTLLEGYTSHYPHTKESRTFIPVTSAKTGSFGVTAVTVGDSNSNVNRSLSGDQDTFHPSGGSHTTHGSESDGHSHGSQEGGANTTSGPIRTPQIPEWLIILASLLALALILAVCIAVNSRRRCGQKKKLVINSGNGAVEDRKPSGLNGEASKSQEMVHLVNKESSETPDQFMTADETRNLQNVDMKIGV
# UniProt A2RUB6: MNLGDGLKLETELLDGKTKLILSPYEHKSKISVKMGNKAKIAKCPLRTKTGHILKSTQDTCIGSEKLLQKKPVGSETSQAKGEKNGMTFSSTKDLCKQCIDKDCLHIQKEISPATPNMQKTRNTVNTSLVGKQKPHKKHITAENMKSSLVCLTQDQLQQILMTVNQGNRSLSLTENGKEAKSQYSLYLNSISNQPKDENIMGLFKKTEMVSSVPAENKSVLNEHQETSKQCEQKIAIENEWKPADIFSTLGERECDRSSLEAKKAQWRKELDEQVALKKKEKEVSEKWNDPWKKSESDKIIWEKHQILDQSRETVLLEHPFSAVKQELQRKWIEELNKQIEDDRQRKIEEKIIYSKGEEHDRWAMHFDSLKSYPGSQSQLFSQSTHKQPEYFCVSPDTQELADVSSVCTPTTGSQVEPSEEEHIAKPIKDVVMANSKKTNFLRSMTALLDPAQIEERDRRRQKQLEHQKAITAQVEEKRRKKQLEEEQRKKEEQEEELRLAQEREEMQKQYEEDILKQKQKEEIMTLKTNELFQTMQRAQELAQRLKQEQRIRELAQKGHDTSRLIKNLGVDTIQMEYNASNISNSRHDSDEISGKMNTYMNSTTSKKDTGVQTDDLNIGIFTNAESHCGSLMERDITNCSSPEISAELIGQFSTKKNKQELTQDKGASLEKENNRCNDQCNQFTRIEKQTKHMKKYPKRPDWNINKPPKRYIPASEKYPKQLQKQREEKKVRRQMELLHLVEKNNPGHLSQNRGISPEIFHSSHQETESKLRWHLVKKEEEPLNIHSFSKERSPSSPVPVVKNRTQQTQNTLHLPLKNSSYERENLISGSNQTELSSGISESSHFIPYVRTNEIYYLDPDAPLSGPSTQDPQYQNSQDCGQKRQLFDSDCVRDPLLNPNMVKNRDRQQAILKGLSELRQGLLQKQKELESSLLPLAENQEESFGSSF
# UniProt O95400: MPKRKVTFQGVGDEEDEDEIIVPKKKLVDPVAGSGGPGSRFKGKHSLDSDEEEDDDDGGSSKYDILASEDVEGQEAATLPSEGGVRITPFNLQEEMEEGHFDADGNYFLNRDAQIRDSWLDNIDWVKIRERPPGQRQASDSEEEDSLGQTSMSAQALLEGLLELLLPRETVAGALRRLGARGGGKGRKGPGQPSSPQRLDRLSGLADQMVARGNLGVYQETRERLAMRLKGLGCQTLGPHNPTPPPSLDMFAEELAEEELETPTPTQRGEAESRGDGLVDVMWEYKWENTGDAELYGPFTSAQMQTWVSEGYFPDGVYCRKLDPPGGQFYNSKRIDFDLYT
# UniProt Q8N9Z2: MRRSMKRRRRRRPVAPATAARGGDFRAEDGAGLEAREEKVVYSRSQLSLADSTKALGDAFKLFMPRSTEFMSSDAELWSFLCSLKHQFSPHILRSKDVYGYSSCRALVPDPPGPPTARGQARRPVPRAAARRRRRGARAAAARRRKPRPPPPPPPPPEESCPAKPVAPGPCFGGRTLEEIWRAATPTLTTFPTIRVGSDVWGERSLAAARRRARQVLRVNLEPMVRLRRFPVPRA
# Some of the results follow.
# Assays:
# Assay in all cases: log2 fold change, soluble protein after heating vs DMSO (PISA); higher = thermal stabilisation; K562 cells, 10 uM, 30 min; active = over 0.2 and 3.5 SD of the protein, either way, in both replicates (recomputed)
# bafetinib = compound: Cc1ccc(NC(=O)c2ccc(CN3CC[C@H](N(C)C)C3)c(C(F)(F)F)c2)cc1Nc1nccc(-c2cncnc2)n1 [bafetinib]
# Procedure, shortened: (§1)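 Thermal stability values are relative to control samples and come from duplicates. They are expressed as log2 fold changes. For measurement, K562 cells (2×10^6 cells/mL) received 10 μM compound for 30 min, and aliquots were heated for 3 min over 48°C-58°C, pooled, and extracted at 4°C in PBS with 0.5% NP-40. Soluble protein, the supernatant after 21,000xg for 90 min, was quantified by TMTpro 16plex LC-MS/MS with equalised channel sums.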
# nilotinib = compound: Cc1cn(-c2cc(NC(=O)c3ccc(C)c(Nc4nccc(-c5cccnc5)n4)c3)cc(C(F)(F)F)c2)cn1 [nilotinib]
# Procedure, shortened: as §1
# [1] = compound: Cc1nc(Nc2n[nH]c3c2CN(C(=O)N[C@H](CN(C)C)c2ccccc2)C3(C)C)c2sccc2n1
# Procedure, shortened: as §1
# dasatinib = compound: Cc1nc(Nc2ncc(C(=O)Nc3c(C)cccc3Cl)s2)cc(N2CCN(CCO)CC2)n1 [dasatinib]
# Procedure, shortened: as §1
# [2] = compound: Cc1ncc(-c2ccnc(Nc3ccc(S(C)(=O)=O)cc3)n2)n1C(C)C
# Procedure, shortened: as §1
# [3] = compound: Cn1cc(-c2ccc3c(c2)CCN3C(=O)Cc2cccc(C(F)(F)F)c2)c2c(N)ncnc21
# Procedure, shortened: as §1
# [4] = compound: Cn1cc(-c2ccc3nnc(C(F)(F)c4ccc5ncccc5c4)n3n2)cn1
# Procedure, shortened: as §1
# tipifarnib = compound: Cn1cncc1[C@@](N)(c1ccc(Cl)cc1)c1ccc2c(c1)c(-c1cccc(Cl)c1)cc(=O)n2C [tipifarnib]
# Procedure, shortened: as §1
# mubritinib = compound: FC(F)(F)c1ccc(/C=C/c2nc(COc3ccc(CCCCn4ccnn4)cc3)co2)cc1 [mubritinib]
# Procedure, shortened: as §1
# [5] = compound: NC(=O)c1cnc(N[C@@H]2CCCC[C@@H]2N)nc1Nc1cccc(-n2nccn2)c1
# Procedure, shortened: as §1
# [6] = compound: NC1(c2ccc(-c3nc4ccn5c(=O)[nH]nc5c4cc3-c3ccccc3)cc2)CCC1
# Procedure, shortened: as §1
# [7] = compound: NCC(=O)Nc1ccc(-n2nc(C(F)(F)F)cc2-c2ccc3c(ccc4ccccc43)c2)cc1
# Procedure, shortened: as §1
# citarinostat = compound: O=C(CCCCCCNC(=O)c1cnc(N(c2ccccc2)c2ccccc2Cl)nc1)NO [citarinostat]
# Procedure, shortened: as §1
# silmitasertib = compound: O=C(O)c1ccc2c(c1)nc(Nc1cccc(Cl)c1)c1ccncc12 [silmitasertib]
# Procedure, shortened: as §1
# [8] = compound: O=C1NC(=O)C(c2cnc3ccccn23)=C1c1cn2c3c(cc(F)cc13)CN(C(=O)N1CCCCC1)CC2
# Procedure, shortened: as §1
# [9] = compound: c1cc(OCCN2CCCCC2)cc(-c2n[nH]c3ccc(-c4nnc[nH]4)cc23)c1
# Procedure, shortened: as §1
# [10] = compound: NC(=O)Nc1cc(-c2cccc(F)c2)sc1C(=O)N[C@H]1CCCNC1
# Procedure, shortened: as §1
# entinostat = compound: Nc1ccccc1NC(=O)c1ccc(CNC(=O)OCc2cccnc2)cc1 [entinostat]
# Procedure, shortened: as §1
# [11] = compound: Cc1cccc(CC(=O)N2CCc3c2ccc(-c2cn(C)c4ncnc(N)c24)c3F)n1
# Procedure, shortened: as §1
# vorinostat = compound: O=C(CCCCCCC(=O)Nc1ccccc1)NO [vorinostat]
# Procedure, shortened: as §1
target,measurement,setting,value
CCDC82 (UniProt Q8N4S0),log2 fold change,bafetinib,inactive: -0.091
same,log2 fold change,nilotinib,inactive: 0.018
same,log2 fold change,[1],inactive: -0.017
same,log2 fold change,dasatinib,inactive: 0.015
same,log2 fold change,[2],inactive: -0.043
same,log2 fold change,[3],inactive: -0.132
same,log2 fold change,[4],inactive: -0.021
same,log2 fold change,tipifarnib,inactive: 0.01
same,log2 fold change,mubritinib,inactive: 0.087
same,log2 fold change,[5],inactive: -0.083
same,log2 fold change,[6],inactive: -0.146
same,log2 fold change,[7],inactive: -0.063
same,log2 fold change,citarinostat,inactive: 0.023
same,log2 fold change,silmitasertib,inactive: 0.047
same,log2 fold change,[8],inactive: -0.169
same,log2 fold change,[9],inactive: 0.046
CCDC97 (UniProt Q96F63),log2 fold change,bafetinib,inactive: -0.022
same,log2 fold change,nilotinib,inactive: -0.074
same,log2 fold change,[1],inactive: -0.115
same,log2 fold change,dasatinib,inactive: 0.021
same,log2 fold change,[2],inactive: -0.149
same,log2 fold change,[3],inactive: -0.013
same,log2 fold change,[4],inactive: -0.045
same,log2 fold change,tipifarnib,inactive: -0.018
same,log2 fold change,mubritinib,inactive: 0.01
same,log2 fold change,[10],inactive: 0.211
same,log2 fold change,[5],inactive: -0.109
same,log2 fold change,[6],inactive: -0.251
same,log2 fold change,[7],inactive: -0.099
same,log2 fold change,entinostat,inactive: 0.076
same,log2 fold change,citarinostat,inactive: 0.072
same,log2 fold change,silmitasertib,inactive: 0.097
same,log2 fold change,[8],inactive: -0.042
same,log2 fold change,[9],inactive: -0.149
CCDC28B (UniProt Q9BUN5),log2 fold change,bafetinib,inactive: 0.03
same,log2 fold change,[11],inactive: -0.066
same,log2 fold change,tipifarnib,inactive: 0.044
same,log2 fold change,mubritinib,inactive: -0.073
same,log2 fold change,[10],inactive: -0.133
same,log2 fold change,[5],inactive: 0.014
same,log2 fold change,[6],inactive: -0.019
same,log2 fold change,[7],inactive: -0.016
same,log2 fold change,entinostat,inactive: -0.17
same,log2 fold change,vorinostat,inactive: 0.067
same,log2 fold change,silmitasertib,inactive: 0.158
CCM2 isoform 2 (UniProt Q9BSQ5),log2 fold change,bafetinib,inactive: -0.059
same,log2 fold change,[11],inactive: -0.038
same,log2 fold change,dasatinib,inactive: -0.003
same,log2 fold change,[3],inactive: 0.043
same,log2 fold change,[4],inactive: -0.021
same,log2 fold change,tipifarnib,inactive: -0.024
same,log2 fold change,mubritinib,inactive: -0.061
same,log2 fold change,[10],inactive: -0.103
same,log2 fold change,[6],inactive: -0.09
same,log2 fold change,[7],inactive: -0.067
same,log2 fold change,entinostat,active: 0.326
same,log2 fold change,vorinostat,inactive: -0.038
same,log2 fold change,citarinostat,inactive: -0.073
same,log2 fold change,silmitasertib,inactive: 0.048
same,log2 fold change,[8],inactive: -0.136
same,log2 fold change,[9],inactive: 0.069
CASP7 isoform 3 (UniProt P55210),log2 fold change,bafetinib,active: -1.01
same,log2 fold change,[11],inactive: -0.401
same,log2 fold change,nilotinib,inactive: 0.145
same,log2 fold change,[1],inactive: -0.001
same,log2 fold change,dasatinib,inactive: -0.239
same,log2 fold change,[2],inactive: -0.102
same,log2 fold change,vorinostat,inactive: 0.044
same,log2 fold change,citarinostat,inactive: -0.058
same,log2 fold change,[8],inactive: -0.048
same,log2 fold change,[9],inactive: 0.021
CD69 (UniProt Q07108),log2 fold change,bafetinib,inactive: -0.018
same,log2 fold change,[11],inactive: 0.055
same,log2 fold change,nilotinib,inactive: 0.115
same,log2 fold change,[1],inactive: 0.023
same,log2 fold change,[2],inactive: 0.157
same,log2 fold change,[3],inactive: 0.232
same,log2 fold change,tipifarnib,inactive: -0.027
same,log2 fold change,mubritinib,inactive: -0.014
same,log2 fold change,[10],inactive: -0.086
same,log2 fold change,[6],inactive: 0.048
same,log2 fold change,[7],inactive: 0.083
same,log2 fold change,entinostat,inactive: -0.008
same,log2 fold change,vorinostat,inactive: 0.062
same,log2 fold change,silmitasertib,inactive: 0.046
same,log2 fold change,[8],inactive: -0.006
CCDC186 (UniProt Q7Z3E2),log2 fold change,bafetinib,inactive: -0.142
same,log2 fold change,[11],inactive: -0.044
same,log2 fold change,nilotinib,inactive: 0.046
same,log2 fold change,[1],inactive: 0.091
same,log2 fold change,dasatinib,inactive: -0.07
same,log2 fold change,[2],inactive: 0.01
same,log2 fold change,mubritinib,inactive: -0.015
same,log2 fold change,[10],inactive: -0.001
same,log2 fold change,[6],inactive: 0.18
same,log2 fold change,[7],inactive: 0.23
same,log2 fold change,entinostat,inactive: 0.019
same,log2 fold change,vorinostat,inactive: -0.068
same,log2 fold change,citarinostat,inactive: -0.039
same,log2 fold change,silmitasertib,inactive: 0.099
same,log2 fold change,[9],inactive: -0.01
CBFB (UniProt Q13951),log2 fold change,bafetinib,inactive: -0.066
same,log2 fold change,nilotinib,inactive: -0.02
same,log2 fold change,[1],inactive: 0.006
same,log2 fold change,dasatinib,inactive: -0.13
same,log2 fold change,[2],inactive: 0.012
same,log2 fold change,[3],inactive: 0.064
same,log2 fold change,[4],inactive: 0.079
same,log2 fold change,mubritinib,inactive: 0.012
same,log2 fold change,[5],inactive: -0.041
same,log2 fold change,[6],inactive: -0.063
same,log2 fold change,[7],inactive: -0.063
same,log2 fold change,citarinostat,inactive: 0.169
same,log2 fold change,silmitasertib,inactive: -0.045
same,log2 fold change,[9],inactive: 0.014
CD80 (UniProt P33681),log2 fold change,[11],inactive: -0.144
same,log2 fold change,nilotinib,inactive: 0.069
same,log2 fold change,[1],inactive: -0.022
same,log2 fold change,dasatinib,inactive: -0.018
same,log2 fold change,[2],inactive: 0.026
same,log2 fold change,[3],inactive: -0.054
same,log2 fold change,[4],inactive: -0.001
same,log2 fold change,tipifarnib,inactive: -0.045
same,log2 fold change,mubritinib,inactive: -0.054
same,log2 fold change,[10],inactive: -0.034
same,log2 fold change,[5],inactive: 0.163
same,log2 fold change,[6],inactive: 0.03
same,log2 fold change,entinostat,inactive: -0.061
same,log2 fold change,vorinostat,inactive: -0.125
same,log2 fold change,citarinostat,inactive: 0.297
same,log2 fold change,silmitasertib,inactive: -0.143
same,log2 fold change,[9],inactive: -0.049
CDC27 (UniProt G5EA36),log2 fold change,[3],inactive: 0.116
same,log2 fold change,[4],inactive: -0.227
same,log2 fold change,tipifarnib,inactive: -0.051
same,log2 fold change,[8],inactive: -0.081
CCNL1 (UniProt Q9UK58),log2 fold change,mubritinib,inactive: 0.122
same,log2 fold change,[6],inactive: -0.224
same,log2 fold change,silmitasertib,inactive: -0.173
CDADC1 (UniProt Q9BWV3),log2 fold change,[7],inactive: 0.102
CD68 (UniProt P34810),log2 fold change,bafetinib,inactive: -0.091
same,log2 fold change,mubritinib,inactive: -0.003
same,log2 fold change,[10],inactive: 0.039
same,log2 fold change,[6],inactive: -0.106
same,log2 fold change,entinostat,inactive: -0.33
same,log2 fold change,silmitasertib,inactive: 0.07
CD44 (UniProt P16070),log2 fold change,dasatinib,inactive: 0.04
same,log2 fold change,[3],inactive: 0.133
same,log2 fold change,tipifarnib,inactive: -0.207
same,log2 fold change,[10],inactive: -0.076
same,log2 fold change,[5],inactive: 0.013
same,log2 fold change,[7],inactive: 0.01
same,log2 fold change,entinostat,inactive: 0.039
CCDC66 (UniProt A2RUB6),log2 fold change,[11],inactive: -0.157
same,log2 fold change,nilotinib,inactive: -0.109
same,log2 fold change,[1],inactive: -0.13
same,log2 fold change,[2],inactive: 0.311
same,log2 fold change,mubritinib,inactive: 0.363
same,log2 fold change,[6],inactive: 0.203
same,log2 fold change,vorinostat,inactive: 0.063
same,log2 fold change,silmitasertib,inactive: -0.341
same,log2 fold change,[8],inactive: -0.023
CD2BP2 (UniProt O95400),log2 fold change,bafetinib,inactive: -0.109
same,log2 fold change,dasatinib,inactive: 0.108
same,log2 fold change,tipifarnib,inactive: 0.104
same,log2 fold change,[7],inactive: 0.114
same,log2 fold change,[8],inactive: 0.093
CCDC71L isoform 2 (UniProt Q8N9Z2),log2 fold change,bafetinib,inactive: 0.005
same,log2 fold change,[3],inactive: -0.075
same,log2 fold change,[10],inactive: -0.234
same,log2 fold change,entinostat,inactive: -0.037
same,log2 fold change,citarinostat,inactive: -0.078
same,log2 fold change,[8],inactive: -0.004
same,log2 fold change,[9],inactive: -0.214
CBX3 (UniProt B8ZZ43),log2 fold change,bafetinib,inactive: -0.085
same,log2 fold change,dasatinib,inactive: 0.057

# An excerpt taken from the entries so far, as a working copy:
target,measurement,setting,value
CCDC28B (UniProt Q9BUN5),log2 fold change,tipifarnib,inactive: 0.044
same,log2 fold change,mubritinib,inactive: -0.073
same,log2 fold change,[10],inactive: -0.133
same,log2 fold change,[5],inactive: 0.014
same,log2 fold change,[6],inactive: -0.019
same,log2 fold change,[7],inactive: -0.016
same,log2 fold change,entinostat,inactive: -0.17

# An excerpt of these results, with tabs.
target	measurement	setting	value
CD69 (UniProt Q07108)	log2 fold change	entinostat	inactive: -0.008
same	log2 fold change	vorinostat	inactive: 0.062
